Test system: HeLa cells
Assay: ChemProteoBase proteomic profiling (2-D DIGE)
Type: cell-based, human
Settings: 18 h, NPD7155 300 μM, NPD9948 300 μM, SCH51344 60 μM, (S)-crizotinib 20 μM, TH287 3 μM

Row | SMILES | proteomic profile similarity (hierarchical clustering)
1 | CNc1cc(-c2cccc(Cl)c2Cl)nc(N)n1 [TH287, reference compound] | shared similarity with tubulin-targeting agents
2 | C[C@H](Oc1cc(-c2cnn(C3CCNCC3)c2)cnc1N)c1c(Cl)ccc(F)c1Cl [(S)-crizotinib, reference compound] | did not belong to any clusters of the standard compounds

Source: PMC4876372 (Scientific Reports, 2016)
